Values from PubChem BioAssay AID1259254 (NCATS, 2017).

- Purpose: 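Gene knock-downs that lead to re-replication, shown by excess G2 DNA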 (primary screen)
- Cells: human HCT116 colorectal cancer cells
- Reagents: single siRNA against human genes
- Duration: 3 days
- Measured: 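Imaged Hoechst DNA stain sorts each cell into a cycle phase by DNA amount; per plate, G2 fraction set to 0% for non-targeting and 100% for GMNN siRNA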
- Scale: G2 robust z-score and G2 cells, % of GMNN control: higher = more G2 cells, more excess DNA replication
- Rule for the call: 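Active siRNAs have a G2 robust z of 5 or more median absolute deviations over the median, which in these data means about 38% or higher of GMNN control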
Shown is one part, drawn at random, of about 59,000 reagents tested. About 1,550 of all reagents (2.6%) were called active. 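G2 share is only a proxy for re-replication; each gene was hit by three separate siRNAs, and active genes were retested.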 Unmarked entries are inactive. Reagents against one gene are numbered here. Not all columns of the deposit are shown. No sequences are given here. Not stated in the record: the amount of reagent.

HOXA4 #1
- G2 robust z-score: 5.03 (active)
- G2 cells, % of GMNN control: 38.4

HOXA4 #2
- G2 robust z-score: -0.795
- G2 cells, % of GMNN control: -2.62

HOXA4 #3
- G2 robust z-score: 2.72
- G2 cells, % of GMNN control: 22.1

AGPAT3 #1
- G2 robust z-score: 0.272
- G2 cells, % of GMNN control: 4.88

AGPAT3 #2
- G2 robust z-score: -0.239
- G2 cells, % of GMNN control: 1.29

AGPAT3 #3
- G2 robust z-score: 4.67
- G2 cells, % of GMNN control: 35.8

DEPDC5 #1
- G2 robust z-score: 7.07 (active)
- G2 cells, % of GMNN control: 52.7

DEPDC5 #2
- G2 robust z-score: 0.455
- G2 cells, % of GMNN control: 6.17

DEPDC5 #3
- G2 robust z-score: 4.36
- G2 cells, % of GMNN control: 33.6

TMPRSS6 #1
- G2 robust z-score: -0.0424
- G2 cells, % of GMNN control: 2.67

TMPRSS6 #2
- G2 robust z-score: 4.29
- G2 cells, % of GMNN control: 33.1

TMPRSS6 #3
- G2 robust z-score: -0.294
- G2 cells, % of GMNN control: 0.9

LTO1 #1
- G2 robust z-score: -0.318
- G2 cells, % of GMNN control: 0.732

LTO1 #2
- G2 robust z-score: -0.263
- G2 cells, % of GMNN control: 1.11

LTO1 #3
- G2 robust z-score: 3.64
- G2 cells, % of GMNN control: 28.6

SLC39A4 #1
- G2 robust z-score: 0.442
- G2 cells, % of GMNN control: 6.08

SLC39A4 #2
- G2 robust z-score: -0.707
- G2 cells, % of GMNN control: -2.01

SLC39A4 #3
- G2 robust z-score: -0.0481
- G2 cells, % of GMNN control: 2.63

TTN #1
- G2 robust z-score: -0.69
- G2 cells, % of GMNN control: -1.89

TTN #2
- G2 robust z-score: 0.648
- G2 cells, % of GMNN control: 7.53

TTN #3
- G2 robust z-score: -0.0184
- G2 cells, % of GMNN control: 2.84

GSDME #1
- G2 robust z-score: -0.0908
- G2 cells, % of GMNN control: 2.33

GSDME #2
- G2 robust z-score: 0.19
- G2 cells, % of GMNN control: 4.31

GSDME #3
- G2 robust z-score: -1.27
- G2 cells, % of GMNN control: -5.99

PLCG2 #1
- G2 robust z-score: 2.38
- G2 cells, % of GMNN control: 19.7

PLCG2 #2
- G2 robust z-score: 4.36
- G2 cells, % of GMNN control: 33.6

PLCG2 #3
- G2 robust z-score: 0.0783
- G2 cells, % of GMNN control: 3.52

TMOD1 #1
- G2 robust z-score: 0.0899
- G2 cells, % of GMNN control: 3.6

TMOD1 #2
- G2 robust z-score: 0.591
- G2 cells, % of GMNN control: 7.13

TMOD1 #3
- G2 robust z-score: 1.45
- G2 cells, % of GMNN control: 13.2

A portion taken from the entries so far, for reference:
SLC39A4 #3
- G2 robust z-score: -0.0481
- G2 cells, % of GMNN control: 2.63

TTN #1
- G2 robust z-score: -0.69
- G2 cells, % of GMNN control: -1.89

TTN #2
- G2 robust z-score: 0.648
- G2 cells, % of GMNN control: 7.53
